Laboratory results taken from PubChem BioAssay AID493014 (National Center for Advancing Translational Sciences (NCATS), 2011).
This is one part of the list. Further columns of the screen follow, without active or inactive calls. The list favours compounds with an active or inconclusive main result. Words in brackets tell the shape of the fitted curve; partial curves, single points and poor fits give uncertain potencies.

experiment: qHTS Assay to Find Inhibitors of Chronic Active B-Cell Receptor Signaling; conditions: ABC-DLBCL IkBa-CBG/CBR reporter, luminescence ratio (green luciferase fused to IkBa over red control in TMD8 lymphoma cells), 4 h; measured here: CBR red luminescence, cell number
Outline: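 Doxycycline induced both beetle luciferases in TMD8 lymphoma cells; IKK-driven degradation limits the IkappaBalpha-fused green signal, while red luminescence normalises for cell number and nonspecific effects. Compounds tested up to 46 uM, 4 hrs.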

Compound	AC50
NC(=O)OCCSc1nnc(-c2cccc(C(N)=S)c2)o1	20.6 µM [rising, partial curve, poor fit]
CC1(C)Cc2c(C#N)c(N3CCNCC3)nc(-c3ccco3)c2CS1	3.55 µM [falling, full curve, poor fit]
OC12ONC(c3ccccn3)C1N1CCC2CC1 (stereo not drawn)	18.4 µM [falling, single point]
O=C1NC(=O)N(c2ccccc2)C(=O)/C1=C\c1ccc([N+](=O)[O-])o1	3.98 µM [rising, single point]
CCC(COC(=O)c1cc(OC)c(OC)c(OC)c1)(c1ccccc1)N(C)C (stereo not drawn)	11.2 µM [rising, partial curve, poor fit]
O=C1CN=C(c2ccc(Cl)cc2)c2oc3ccccc3c2N1	31.6 µM [rising, single point]
Cn1cc(C(=O)Cc2ccccc2)c2ccccc21	2.31 µM [rising, full curve, poor fit]
COc1ccc(Cl)cc1C(=O)C1CCCN(Cc2cnc(C)s2)C1 (stereo not drawn)	1.78 µM [rising, partial curve, poor fit]
COc1cccc(N=Cc2c(O)n(Cc3ccco3)c(=O)[nH]c2=O)c1	35.5 µM [falling, single point]
Cc1cccc(-n2c(C)nc3cc(C(=O)N4CCOCC4)ccc32)c1	15.8 µM [rising, partial curve, poor fit]
CN(C)C1C(=O)C(C(N)=O)=C(O)C2(O)C(=O)C3=C(O)c4c(O)cccc4C(C)(O)C3C(O)C12 (stereo not drawn)	14.1 µM [rising, partial curve, poor fit]
Cc1ccc(C2SCC(=O)Nc3c2c(=O)[nH]n3C2CCOC(C)(C)C2)cc1 (stereo not drawn)	23.1 µM [rising, single point]
COc1ccc2c(c1)/C(=C/c1cnc[nH]1)C(=O)N2	35.5 µM [falling, single point]
CN1CCN(CC(=O)Nc2nc(-c3c[nH]c4ccccc34)cs2)CC1	10 µM [falling, partial curve]
CCSc1nnc([C@@H](N)Cc2ccccc2)o1	6.51 µM [rising, single point]
COc1ccc2c(c1)[nH]c1c(C)nccc12	9.2 µM [falling, partial curve]
CCCCn1c(N)c(C(=O)NCc2cccs2)c2nc3ccccc3nc21	7.94 µM [falling, partial curve]
O=C(C(Cc1ccccc1)NS(=O)(=O)c1ccc(F)cc1)N1CCC2(CC1)OCCO2 (stereo not drawn)	2.06 µM [falling, full curve, poor fit]

Taken from above.
AC50 with CCCCn1c(N)c(C(=O)NCc2cccs2)c2nc3ccccc3nc21 reads 7.94 µM [falling, partial curve]
AC50 with COc1cccc(N=Cc2c(O)n(Cc3ccco3)c(=O)[nH]c2=O)c1 reads 35.5 µM [falling, single point]
